## Library screen at single concentrations

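Growth of Mycobacterium tuberculosis over 4 days (cholesterol / DPPC medium with tyloxapol); the read-out is not stated. Concentration: 500 µM. Direction is inferred from retests: higher values go with more growth inhibition. Size under these conditions: about 18,000 compounds, about 900 of them at 50% or above in at least one test.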

The filed quantity is “Percent Effect” (%). The record does not define 0% and 100%; most values in the screen are far below 50% and negative numbers occur (in some assays of this library far below -100). This is an unselected part of the compounds tested.

structure	Percent Effect
NCc1ccncc1OCc1ccccc1	39.27%
CCO[C@H]1CN(C)C[C@@H]1NC(=O)c1cnn(C(C)C)c1	1.216%
Cc1cc(C(=O)NCCCN(C)CC(F)(F)F)no1	50.19%
N#CCC(=O)C1CCCC1	-10.44%
CO[C@H]1CNCC1NC(=O)c1scnc1C (stereo partly shown)	-10.55%
CC(=O)NCC(c1ccsc1)N(C)C (stereo not shown)	0.8157%
CCN(CC)S(=O)(=O)c1csc(C(=O)N(C)C)c1	12.82%
CN(C)C(=O)C1(N)CC1	-6.298%
CCN1CCN(c2cc(C#N)ccn2)CC1	10.41%
CSc1ccccc1-c1[nH][nH]c(=O)c1CCN	17.92%
Cc1ccc(-c2noc([C@H]3CCCN3)n2)nn1	16.99%
CC(C)(C)C(=O)CNC(=O)C1(C#N)CCCCC1	4.232%
COC(=O)c1cc(Cn2cc(F)ccc2=O)oc1C	-14.15%
CCN1CCCC1CNC(=O)c1c[nH]nn1 (stereo not shown)	-4.123%
NC(=O)Cc1ccncc1	-1.056%
O=C(CCc1ccccc1)NC1CCCCNC1=O (stereo not shown)	-0.2%
C[C@@H](N)C(=O)OC(C)(C)C	-5.75%
NS(=O)(=O)Cc1cccnc1	-21.33%
CC1CCS(=O)(=O)CCN1CC(=O)NCC1CCC1 (stereo not shown)	21.66%
N#CCCNCc1ccccc1	31.99%
CCCC1C=CCN1Cc1nc(C(=O)NC)no1 (stereo not shown)	9.654%
N#CC1(NC(=O)CCSc2ccccn2)CCC1	12.44%
O=C(NCCC(=O)N1CCCC1)Nc1nncs1	-1.784%
CC(C(=O)Nc1ccc(S(N)(=O)=O)cc1)N1CCCC1 (stereo not shown)	24.01%
COCC(=O)NCC1(N2CCOCC2)CCCCC1	1.723%
NCC(=O)Nc1ccc(Cl)c(F)c1	68.45%
O=C(c1cccs1)N1CCCN(CCCO)CC1	-0.8488%
CN(Cc1cccs1)C(=O)CSc1n[nH]c(=O)n1C	-2.283%
Cc1nccn1CCCN(C)CC1COCCO1 (stereo not shown)	-10%
Cc1cc(C(=O)NC(C(N)=O)c2ccccc2)[nH]n1 (stereo not shown)	-6.273%
CSc1ccccc1C(=O)NCc1n[nH]c(C)n1	-0.4776%
CC(C)(CNC(=O)NCCc1cccc(F)c1)C(N)=O	5.693%
CC(O)CN1CCN(C)CC1 (stereo not shown)	-1.404%
CN1CCN(c2cccc(C#N)n2)CC1CCO (stereo not shown)	-2.769%
CCn1nc(C(=O)N2CC[C@@H](N)[C@@H](OC)C2)cc1C	8.709%
CCc1nc(C)ncc1C(=O)N1CCSCC1	-5.533%
CCCc1ccc(CN2C[C@H](OCC)[C@@H](O)C2)o1	81.54%
NC1CCNC2(CCC2)C1 (stereo not shown)	-1.823%
Cc1c[nH]c(C(=O)NCCNc2ccncc2C)n1	-7.418%
CCS(=O)(=O)N1CCC(C(=O)NC(C)(C)C)CC1	-0.8683%
Oc1ccc2c(c1)COC2	1.402%
CC(NC(=O)c1ccco1)C(=O)Nc1ncccc1Br (stereo not shown)	-9.431%
COCc1ccccc1C(=O)N1CCCC(O)C1 (stereo not shown)	-10.48%
Cc1cc(C(=O)N(C)CC(=O)NC2CC2)c(C)o1	-11.91%
COCC(C)C(=O)Nc1ccc2c(c1)CCCN2 (stereo not shown)	-20.25%
O=C(Cn1ncc2ccccc21)N[C@@H]1CCOC[C@H]1O	-11.36%
COC(=O)c1ccc(OCC(=O)N2CCOCC2)cc1	26.84%
CC(c1ccccn1)N1CCN(Cc2csnn2)CC1 (stereo not shown)	-6.468%
CC(C#N)NC(=O)c1sccc1OC(F)F (stereo not shown)	-4.818%
COCCOCC(=O)NC(C)C(=O)N1CCSCC1 (stereo not shown)	4.132%
CSc1ncc(C(=O)NCc2noc(C)n2)cn1	4.701%
OCC1(Cc2ccccc2F)CCCNC1 (stereo not shown)	-9.587%
O=C(COC(=O)c1ccc2ccccc2n1)NC1CC1	-15.27%
O=C(CC1COCCN1)NCc1ccc2c(c1)OCO2 (stereo not shown)	2.873%
CCCOc1nsnc1N1CCOCC1	-14.63%
CCN1CCCC1CNS(=O)(=O)c1cnn(C)c1 (stereo not shown)	-2.938%

The last 6 entries again:

{"structure": "CSc1ncc(C(=O)NCc2noc(C)n2)cn1", "Percent Effect": 4.701}
{"structure": "OCC1(Cc2ccccc2F)CCCNC1", "stereo": "stereo not shown", "Percent Effect": -9.587}
{"structure": "O=C(COC(=O)c1ccc2ccccc2n1)NC1CC1", "Percent Effect": -15.27}
{"structure": "O=C(CC1COCCN1)NCc1ccc2c(c1)OCO2", "stereo": "stereo not shown", "Percent Effect": 2.873}
{"structure": "CCCOc1nsnc1N1CCOCC1", "Percent Effect": -14.63}
{"structure": "CCN1CCCC1CNS(=O)(=O)c1cnn(C)c1", "stereo": "stereo not shown", "Percent Effect": -2.938}

The values are deposited in ChEMBL (CHEMBL3988442, “University of Dundee, Small-Polar-MMV Screening Library” (2021)).